Paper PMC11264951
These are yes or no findings as the source states them, for the method shown. Binding seen in cells or lysates may run through a third protein. A yes stands for co-enrichment or nearness to the bait. Other partners may have been found.

B1: splicing factors 3b subunit 1 (SF3B1) (protein, UniProt Q99NB9 1-1304)
chain: MAKIAKTHEDIEAQIREIQGKKAALDEAQGVGLDSTGYYDQEIYGGSDSRFAGYVTSIAATELEDDDDDYSSSTSLLGQKKPGYHAPVALLNDIPQSTEQYDPFAEHRPPKIADREDEYKKHRRTMIISPERLDPFADGGKTPDPKMNARTYMDVMREQHLTKEEREIRQQLAEKAKAGELKVVNGAAASQPPSKRKRRWDQTADQTPGATPKKLSSWDQAETPGHTPSLRWDETPGRAKGSETPGATPGSKIWDPTPSHTPAGAATPGRGDTPGHATPGHGGATSSARKNRWDETPKTERDTPGHGSGWAETPRTDRGGDSIGETPTPGASKRKSRWDETPASQMGGSTPVLTPGKTPIGTPAMNMATPTPGHIMSMTPEQLQAWRWEREIDERNRPLSDEELDAMFPEGYKVLPPPAGYVPIRTPARKLTATPTPLGGMTGFHMQTEDRTMKSVNDQPSGNLPFLKPDDIQYFDKLLVDVDESTLSPEEQKERKIMKLLLKIKNGTPPMRKAALRQITDKAREFGAGPLFNQILPLLMSPTLEDQERHLLVKVIDRILYKLDDLVRPYVHKILVVIEPLLIDEDYYARVEGREIISNLAKAAGLATMISTMRPDIDNMDEYVRNTTARAFAVVASALGIPSLLPFLKAVCKSKKSWQARHTGIKIVQQIAILMGCAILPHLRSLVEIIEHGLVDEQQKVRTISALAIAALAEAATPYGIESFDSVLKPLWKGIRQHRGKGLAAFLKAIGYLIPLMDAEYANYYTREVMLILIREFQSPDEEMKKIVLKVVKQCCGTDGVEANYIKTEILPPFFKHFWQHRMALDRRNYRQLVDTTVELANKVGAAEIISRIVDDLKDEAEQYRKMVMETIEKIMGNLGAADIDHKLEEQLIDGILYAFQEQTTEDSVMLNGFGTVVNALGKRVKPYLPQICGTVLWRLNNKSAKVRQQAADLISRTAVVMKTCQEEKLMGHLGVVLYEYLGEEYPEVLGSILGALKAIVNVIGMHKMTPPIKDLLPRLTPILKNRHEKVQENCIDLVGRIADRGAEYVSAREWMRICFELLELLKAHKKAIRRATVNTFGYIAKAIGPHDVLATLLNNLKVQERQNRVCTTVAIAIVAETCSPFTVLPALMNEYRVPELNVQNGVLKSLSFLFEYIGEMGKDYIYAVTPLLEDALMDRDLVHRQTASAVVQHMSLGVYGFGCEDSLNHLLNYVWPNVFETSPHVIQAVMGALEGLRVAIGPCRMLQYCLQGLFHPARKVRDVYWKIYNSIYIGSQDALIAHYPRIYNDDKNTYIRYDLDYIL
B2: YTHDC2 (protein, UniProt B2RR83 1-1445)
chain: MSRPSSVSPRPPAPSGGGTGGGGGGSGGGGGGGGGGPASCGPGGGGRAKGLKDIRIDEEVKIAVNIALERFRYGDQREMEFPSSLTSTERAFIHRLSQSLGLVSKSKGKGANRYLTVKKKDGSETAHAMMTCNLTHNTKHAVRSLIQRFPVTNKERTELLPKTERGNVFAVEAENREMSKTSGRLNNGIPQVPVKRGESEFDSFRQSLPVFEKQEEIVKIIKENKVVLIVGETGSGKTTQIPQFLLDDCFKNGIPCRIFCTQPRRLAAIAVAERVAAERRERIGQTIGYQIRLESRVSPKTLLTFCTNGVLLRTLMAGDSTLSTVTHVIVDEVHERDRFSDFLLTKLRDLLQKHPTLKLILSSAALDVNLFIRYFGSCPVIYIQGRPFEVKEMFLEDILRTTGYTNKEMLKYKKEKQREEKQQTTLTEWYSAQENTFKPESQRQRAVASVSEEYDLLDDGGDAVFSQLTEKDVNCLEPWLIKEMDACLSDIWLHKDVDAFAQVFHLILTENVSVDYRHSETSATALMVAAGRGFTSQVEQLISMGANVHSKASNGWMALDWAKHFGQTEIVDLLESYSASLEFGNLDESSLVQTNGNDLSAEDRELLKAYHHSFDDEKVDLDLIMHLLYNICHSCDAGAILIFLPGYDEIVGLRDRILFDDKRFADNTHRYQVFMLHSNMQTSDQKKVLKNPPAGVRKIILSTNIAETSITVNDVVFVIDSGKVKEKSFDALNFVTMLKMVWISKASAIQRKGRAGRCRPGICFRLFSRLRFQNMLEFQTPELLRMPLQELCLHTKLLAPVNCTIADFLMKAPEPPPALIVRNAVQMLKTIDAMDAWEDLTELGYHLADLPVEPHLGKMVLCAVVLKCLDPILTIACTLAYRDPFVLPTQASQKRAAMLCRKRFTAGTFSDHMALLRAFQAWQKARSDGWERAFCEKNFLSQATMEIIIGMRTQLLGQLRASGFVRARGGGDIRDVNTNSENWAVVKAALVAGMYPNLVHVDRENVILTGPKEKKVRFHPTSVLSQPQYKKIPPANGQAAAIQALPTDWLIYDEMTRAHRIANIRCCSAVTPVTVLVFCGPARLASNALQEPSSFRADGIPNDSSDSEMEDRTTANLAALKLDEWLNFKLEPEAASLLLQLRQKWHSLFLRRMRAPSKPWSQVDEATIRAIIAVLSTEEQSAGLQQPSGIGQRPRPMSSEELPLASSWRSNNSRKSTADTEFADGSTTGERVLMKSPSPALHPPQKYKDRGILHPKRSTDDRSDQSSVKSTDSSSYPSPCASPSPPSSGKGSKSPSPRPNMPIRYFIMKSSNLRNLEISQQKGIWSTTPSNERKLNRAFWESSMVYLVFSVQGSGHFQGFSRMSSEIGREKSQDWGSAGLGGVFKVEWIRKESLPFQFAHHLLNPWNDNKKVQISRDGQELEPQVGEQLLQLWERLPLGEKTTSD
B3: RNA binding motif protein 46 (RBM46) (protein, UniProt P86049 1-533)
chain: MNEENTDGTNGCSKVRTGTQNEAALLALMEKTGYNMVQENGQRKFGGPPPGWEGPPPPRGCEVFVGKIPRDMYEDELVPVFERAGKIYEFRLMMEFSGENRGYAFVMYTTKEEAQLAIRILNNYEIRPGKFIGVCVSLDNCRLFIGAIPKEKKKEEILDEMKKVTEGVVDVIVYPSATDKTKNRGFAFVEYESHRAAAMARRKLIPGTFQLWGHTIQVDWADPEKEVDEETMQRVKVLYVRNLMISTTEETIKAEFSKFKPGAVERVKKLRDYAFVHFFHREDAVAAMSVMNGKCIDGASIEVTLAKPVNKENTWRQHLNGQISPNSENLLVYANKEESHSKSLGKPPTLPTRLNGQHSPSPPEIERCTYPFFPGTKLTPISMYSLKSNHFNSAVMHLDYYCNKNNWAPPEYYLYSTTSQDGKVLLVYKIVIPAIANGSQSYFMPDKLCTTLEDAKELAAQFTLLHLDFNFRRSSINSLSPVSTTLSSGTPSMLPYTSRPSSYPSYPLSPTISLANGSHVGQRLYISNQASFF

Target: T1, methyltransferase-like protein 16 (METTL16) (mouse (endogenous in P10 testes)) (UniProt Q9CQG2)
T1 sequence: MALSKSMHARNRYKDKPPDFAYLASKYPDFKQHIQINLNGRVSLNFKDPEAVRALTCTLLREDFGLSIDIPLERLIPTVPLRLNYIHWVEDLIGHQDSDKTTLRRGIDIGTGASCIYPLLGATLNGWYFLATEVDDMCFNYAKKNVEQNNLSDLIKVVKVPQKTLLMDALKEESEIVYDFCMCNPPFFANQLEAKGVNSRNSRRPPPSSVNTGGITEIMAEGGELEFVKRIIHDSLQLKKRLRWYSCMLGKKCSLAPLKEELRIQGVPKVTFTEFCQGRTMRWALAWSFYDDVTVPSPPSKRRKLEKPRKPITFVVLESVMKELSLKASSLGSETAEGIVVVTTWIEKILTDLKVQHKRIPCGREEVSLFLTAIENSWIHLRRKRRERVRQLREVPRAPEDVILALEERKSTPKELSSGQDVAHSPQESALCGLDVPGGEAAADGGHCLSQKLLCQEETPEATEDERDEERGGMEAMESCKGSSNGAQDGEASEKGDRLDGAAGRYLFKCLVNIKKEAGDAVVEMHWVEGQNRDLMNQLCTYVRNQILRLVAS
Assay: affinity purification with mass spectrometry; P10 mouse testis lysates, IP with METTL16 antibody or IgG, Protein A magnetic beads, eluate analysed by LC-MS/MS (Q Exactive Plus, MaxQuant); repeated twice

Row | Binder | binding
1 | B1 | binds
2 | B2 | binds
3 | B3 | binds
